Reference: patent US20250041330A1, “METHOD OF TREATING OBESITY BY SELECTIVE TARGETING OF VISCERAL ADIPOSITY USING POLYCATION NANOMEDICINE” (THE TRUSTEES OF COLUMBIA UNIVERSITY IN THE CITY OF NEW YORK, priority 2022, published 2025)
At least one structure is not confirmed: it was looked up by name or label, or the drawing left a doubt.

Tested on: 3T3-L1 cells
Test: 3T3-L1 adipocyte differentiation (lipid staining, qPCR)
Format: cell-based, mouse
Conditions: 3T3-L1 adipocytes, rapamycin 100 nM, Day 4 to Day 6
Method: 3T3-L1 (ATCC CL-173) and C3H10T1/2 (CCL-226) cells were purchased from ATCC and cultured in high glucose DMEM supplemented with 10% calf serum (CS, Gemini Bio-Products 100-506) or FBS (heat-inactivated, Corning 35-011-CV), and 1× Pen Strep (Thermo Fisher). Cells were differentiated in the standard adipogenic cocktail after reaching confluence for 2 days. The cocktail contains DMEM, 10% FBS, 1 μM dexamethasone (DEX), 10 μg/ml insulin and 0.5 mM 3-isobutyl-1-methylxanthine (IBMX). 5 μM Rosiglitazone was used in the first two days to facilitate C3H10T1/2 cells' differentiation. After induction for two days, cells were maintained in a complete medium containing 2.5 μg/ml insulin until fully differentiated. P-G3 polymers or NPs (10 μg/ml) were added at indicated times, and cells were harvested during differentiation for analyses. Lipid droplets were visualized using Oil Red O staining or BODIPY staining. 3T3-L1 cells were treated with rapamycin (100 nM) from Day 4 to Day 6. […]
Total RNA from tissues or cells was extracted by using the TriZol reagent (Thermo Fisher) in combination with an RNA isolation kit from Macherey-Nagel. […] Bio-Rad CFX96 Real-Time PCR system was used to perform quantitative real-time PCR (qPCR) with goTaq qPCR Master Mix (Promega). The relative gene expression was calculated by using the ΔΔCt method with Cyclophilin A or Rpl23 as the reference gene. […]

In the case of `CO[C@H]1C[C@@H]2CC[C@@H](C)[C@@](O)(O2)C(=O)C(=O)N2CCCC[C@H]2C(=O)O[C@H]([C@H](C)C[C@@H]2CC[C@@H](O)[C@H](OC)C2)CC(=O)[C@H](C)/C=C(\C)[C@@H](O)[C@@H](OC)C(=O)[C@H](C)C[C@H](C)/C=C/C=C/C=C/1C` [rapamycin], the “expression of lipid synthetic genes” value is reported as “largely mimicked P-G3's inhibition of the lipid synthetic genes”.
